Here are results for 13 molecules from US20110020518A1, “TASTE MODIFYING PRODUCT” (priority 2008, published 2011).

System in one data set: not given
Test: not given
The settings on record: as disclosed in U.S. Pat. No. 5,298,486; cited from earlier work.
In the case of `CCCCCCc1cccnc1` [3-hexylpyridine], the organoleptic description result was “fruity”.

Regarding `CCCCCCCc1cccnc1` [3-heptylpyridine], the organoleptic description result was “fatty, metallic and fishy”.

Another data set has as its system kokumi/umami taste. The data set can be described thus: Evaluation of alkylpyridines: taste panel of 8 trained panelists, samples in 0.3% aqueous NaCl. In kind it is in vivo. The settings on record: 10 ppm in 0.3% aqueous NaCl. The protocol:
Alkylpyridines shown in the following table were prepared by firstly being diluted into propylene glycol solvent in order to provide a 10% solution of the alkylpyridine. Each solution was then diluted using a 0.3% aqueous solution of NaCl, heated if necessary to achieve better dissolution, to a concentration of between 10 ppm and 30 ppm of the alkylpyridine. The samples were then stored at ambient temperature.
A panel consisting of 8 trained panelists evaluated the samples for taste properties on a scale of 0 to 10 where 0 denoted no kokumi/umami effect and 10 denoted extremely strong kokumi/umami effect.
Regarding `CCCCCCCc1ccccn1` [Compound of ex. 1, 2-heptylpyridine], the “Description (taste)” value is “Fruity, woody, blackcurrant, green,”.

On to `CCCCCc1cc(C)ccn1` [Compound of ex. 6, 4-methyl-2-pentylpyridine], for which the “Description (taste)” value is given as “Fruity, woody, strong”.

With `CCCCCCc1ccccn1` [2-Hexylpyridine], the “Description (taste)” value is recorded as “Fruity, fatty, oily, green, bell pepper”.

Turning to `CCCc1ccccn1` [2-Propylpyridine, reference compound], the “Description (taste)” value was “Plastic, slightly fruity, green, vegetal,”.

As for `CCCCCCCCCCCCc1ccccn1` [Compound of ex. 5, 2-dodecylpyridine], the “Description (taste)” value is reported as “Slightly floral, very weak”.

`CCCCCCCCc1ccccn1` [Compound of ex. 2, 2-octylpyridine]: the “Description (taste)” value is listed as “Fruity, bit rotten, weak, fatty, waxy,”.

Regarding `CCc1ccccn1` [2-Ethylpyridine, reference compound], the “Description (taste)” value is “Plastic, slightly amine, green, rubbery,”.

`CCCCCCCCCCCc1ccccn1` [Compound of ex. 4, 2-undecylpyridine]: the “Description (taste)” value was “Weak, fabric conditioner”.

As for `CCCCCCCCCc1ccccn1` [Compound of ex. 3, 2-nonylpyridine], the “Description (taste)” value is “Waxy, fatty, slightly fruity, slightly”.

Staying with this data set, now noted: 20 ppm in 0.3% aqueous NaCl.
With `Cc1ccccn1` [2-picoline, reference compound], the “Description (taste)” value was “Chemical, hot plastic, polystyrene,”.

The data set is the same for the next values; noted with them: 30 ppm in 0.3% aqueous NaCl.
For the molecule `c1ccncc1` [Pyridine, reference compound], the “Description (taste)” value is given as “Sweet, plastic, chemical, slightly amine,”.
